# Values of other authors, collected in patent US11963946B2, “MDMA treatment to enhance acute emotional effects profile of LSD, psilocybin, or other psychedelics” (Universitätsspital Basel, priority 2020, dated 2024).
# By UniProt entry, the sequences of proteins in these tests, tags left out.
# UniProt P14416, whole entry: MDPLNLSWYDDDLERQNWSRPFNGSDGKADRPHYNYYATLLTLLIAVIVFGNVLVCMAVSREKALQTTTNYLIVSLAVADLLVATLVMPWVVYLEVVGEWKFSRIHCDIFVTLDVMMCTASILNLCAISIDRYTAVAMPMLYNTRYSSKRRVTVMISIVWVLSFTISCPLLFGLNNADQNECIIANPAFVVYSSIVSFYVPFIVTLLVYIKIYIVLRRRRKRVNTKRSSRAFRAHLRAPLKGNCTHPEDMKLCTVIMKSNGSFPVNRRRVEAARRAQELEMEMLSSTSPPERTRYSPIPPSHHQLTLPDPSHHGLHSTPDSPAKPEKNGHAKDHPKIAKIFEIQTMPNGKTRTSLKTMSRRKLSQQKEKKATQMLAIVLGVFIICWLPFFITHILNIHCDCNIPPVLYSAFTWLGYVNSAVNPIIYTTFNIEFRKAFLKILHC
# At least one compound was matched to its structure with a doubt left.
# Legend:
# [1] = test system: serotonin 5-HT1 receptors; conditions: Rickli et al., 2016; cited from earlier work
# D2 receptors = D2 receptors (Homo sapiens, UniProt P14416); conditions: cited from earlier work
# [2] = psilocybin (Passie et al., 2008; Griffiths et al., 2016); cited from earlier work
Compound,agonist potency at serotonin 5-HT1 receptors [1],affinity for D2 receptors (D2 receptors),duration of action [2] [h]
"CN(C)CCc1c[nH]c2ccccc12 [DMT, dimethyltryptamine]",potent agonists,,
CN(C)CCc1c[nH]c2cccc(OP(=O)(O)O)c12 [psilocybin],,no affinity,4 to 6
